For 35 targets, log2 fold change results are on record in the supplement of paper PMC10849652.

The chains behind the UniProt entries cited, without tags or fusion partners. Where a name states a change or a piece, a line headed by the entry shows the natural chain unless it says otherwise.
UniProt Q92688: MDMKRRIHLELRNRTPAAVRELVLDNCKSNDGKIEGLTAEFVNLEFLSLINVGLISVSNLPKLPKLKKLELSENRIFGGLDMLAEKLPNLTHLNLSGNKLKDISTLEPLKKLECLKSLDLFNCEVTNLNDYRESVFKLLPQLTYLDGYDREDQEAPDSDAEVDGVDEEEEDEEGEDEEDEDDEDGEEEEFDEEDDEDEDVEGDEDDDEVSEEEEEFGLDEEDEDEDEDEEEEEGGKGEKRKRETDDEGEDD
UniProt Q5VTE6: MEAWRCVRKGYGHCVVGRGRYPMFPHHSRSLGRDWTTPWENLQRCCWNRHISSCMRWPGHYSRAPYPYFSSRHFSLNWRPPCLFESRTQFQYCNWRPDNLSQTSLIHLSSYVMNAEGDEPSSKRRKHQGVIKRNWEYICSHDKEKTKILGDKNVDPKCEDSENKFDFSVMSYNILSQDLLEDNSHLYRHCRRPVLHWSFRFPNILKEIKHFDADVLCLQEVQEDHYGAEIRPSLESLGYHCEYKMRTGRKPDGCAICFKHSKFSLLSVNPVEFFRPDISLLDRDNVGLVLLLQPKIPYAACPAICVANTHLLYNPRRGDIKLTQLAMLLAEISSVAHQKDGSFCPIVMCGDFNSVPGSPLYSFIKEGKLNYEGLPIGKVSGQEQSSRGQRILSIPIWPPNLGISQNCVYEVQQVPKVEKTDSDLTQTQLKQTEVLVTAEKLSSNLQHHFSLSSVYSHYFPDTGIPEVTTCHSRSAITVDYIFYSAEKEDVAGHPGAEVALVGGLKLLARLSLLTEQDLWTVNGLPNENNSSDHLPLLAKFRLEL
UniProt Q8IZ07: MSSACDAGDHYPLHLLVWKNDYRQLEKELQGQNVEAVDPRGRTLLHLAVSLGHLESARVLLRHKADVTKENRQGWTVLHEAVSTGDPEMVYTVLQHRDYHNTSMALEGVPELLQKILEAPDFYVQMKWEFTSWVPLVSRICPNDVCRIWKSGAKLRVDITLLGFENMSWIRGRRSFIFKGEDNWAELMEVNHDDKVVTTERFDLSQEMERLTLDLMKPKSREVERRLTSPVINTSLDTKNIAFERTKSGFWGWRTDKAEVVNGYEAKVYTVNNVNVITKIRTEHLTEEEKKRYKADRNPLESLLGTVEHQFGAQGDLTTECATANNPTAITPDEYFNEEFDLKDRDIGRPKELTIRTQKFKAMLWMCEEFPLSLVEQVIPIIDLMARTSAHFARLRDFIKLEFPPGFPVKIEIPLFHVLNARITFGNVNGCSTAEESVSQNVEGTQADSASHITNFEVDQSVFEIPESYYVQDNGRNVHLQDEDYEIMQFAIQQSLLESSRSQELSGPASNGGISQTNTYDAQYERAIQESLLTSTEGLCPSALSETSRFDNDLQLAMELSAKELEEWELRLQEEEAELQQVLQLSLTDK
UniProt Q3SY69: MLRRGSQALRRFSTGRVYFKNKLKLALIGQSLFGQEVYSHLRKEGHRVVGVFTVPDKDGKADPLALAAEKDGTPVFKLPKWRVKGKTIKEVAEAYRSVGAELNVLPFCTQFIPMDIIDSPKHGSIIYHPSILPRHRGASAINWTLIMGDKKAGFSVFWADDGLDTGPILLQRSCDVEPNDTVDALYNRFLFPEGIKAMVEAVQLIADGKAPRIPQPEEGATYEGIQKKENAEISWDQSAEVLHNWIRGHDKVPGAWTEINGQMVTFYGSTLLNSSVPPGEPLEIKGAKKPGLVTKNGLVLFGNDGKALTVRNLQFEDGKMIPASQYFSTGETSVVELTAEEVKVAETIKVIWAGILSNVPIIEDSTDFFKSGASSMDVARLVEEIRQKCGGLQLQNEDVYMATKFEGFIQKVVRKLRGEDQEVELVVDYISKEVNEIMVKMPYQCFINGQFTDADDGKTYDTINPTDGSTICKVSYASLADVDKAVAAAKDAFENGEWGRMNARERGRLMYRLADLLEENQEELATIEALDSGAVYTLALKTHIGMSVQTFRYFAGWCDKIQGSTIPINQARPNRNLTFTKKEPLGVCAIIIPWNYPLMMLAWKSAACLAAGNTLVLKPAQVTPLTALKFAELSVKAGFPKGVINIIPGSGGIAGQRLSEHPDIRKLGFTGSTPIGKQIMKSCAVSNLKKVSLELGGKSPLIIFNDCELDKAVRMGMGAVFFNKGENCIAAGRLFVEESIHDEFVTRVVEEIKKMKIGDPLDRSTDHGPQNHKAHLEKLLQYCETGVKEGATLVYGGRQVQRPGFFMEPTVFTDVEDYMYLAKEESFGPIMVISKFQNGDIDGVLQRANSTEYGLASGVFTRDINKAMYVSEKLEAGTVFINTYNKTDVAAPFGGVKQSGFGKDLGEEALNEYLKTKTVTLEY
UniProt P13716: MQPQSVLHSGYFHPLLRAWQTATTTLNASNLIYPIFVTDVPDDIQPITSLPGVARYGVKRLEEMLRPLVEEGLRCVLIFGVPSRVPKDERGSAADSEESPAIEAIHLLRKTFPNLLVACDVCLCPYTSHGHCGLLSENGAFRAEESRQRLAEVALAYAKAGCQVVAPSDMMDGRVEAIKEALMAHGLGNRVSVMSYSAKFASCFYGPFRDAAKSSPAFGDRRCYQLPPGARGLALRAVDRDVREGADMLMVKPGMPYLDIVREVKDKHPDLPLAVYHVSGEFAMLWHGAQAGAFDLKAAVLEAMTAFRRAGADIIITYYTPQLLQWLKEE
UniProt Q13367: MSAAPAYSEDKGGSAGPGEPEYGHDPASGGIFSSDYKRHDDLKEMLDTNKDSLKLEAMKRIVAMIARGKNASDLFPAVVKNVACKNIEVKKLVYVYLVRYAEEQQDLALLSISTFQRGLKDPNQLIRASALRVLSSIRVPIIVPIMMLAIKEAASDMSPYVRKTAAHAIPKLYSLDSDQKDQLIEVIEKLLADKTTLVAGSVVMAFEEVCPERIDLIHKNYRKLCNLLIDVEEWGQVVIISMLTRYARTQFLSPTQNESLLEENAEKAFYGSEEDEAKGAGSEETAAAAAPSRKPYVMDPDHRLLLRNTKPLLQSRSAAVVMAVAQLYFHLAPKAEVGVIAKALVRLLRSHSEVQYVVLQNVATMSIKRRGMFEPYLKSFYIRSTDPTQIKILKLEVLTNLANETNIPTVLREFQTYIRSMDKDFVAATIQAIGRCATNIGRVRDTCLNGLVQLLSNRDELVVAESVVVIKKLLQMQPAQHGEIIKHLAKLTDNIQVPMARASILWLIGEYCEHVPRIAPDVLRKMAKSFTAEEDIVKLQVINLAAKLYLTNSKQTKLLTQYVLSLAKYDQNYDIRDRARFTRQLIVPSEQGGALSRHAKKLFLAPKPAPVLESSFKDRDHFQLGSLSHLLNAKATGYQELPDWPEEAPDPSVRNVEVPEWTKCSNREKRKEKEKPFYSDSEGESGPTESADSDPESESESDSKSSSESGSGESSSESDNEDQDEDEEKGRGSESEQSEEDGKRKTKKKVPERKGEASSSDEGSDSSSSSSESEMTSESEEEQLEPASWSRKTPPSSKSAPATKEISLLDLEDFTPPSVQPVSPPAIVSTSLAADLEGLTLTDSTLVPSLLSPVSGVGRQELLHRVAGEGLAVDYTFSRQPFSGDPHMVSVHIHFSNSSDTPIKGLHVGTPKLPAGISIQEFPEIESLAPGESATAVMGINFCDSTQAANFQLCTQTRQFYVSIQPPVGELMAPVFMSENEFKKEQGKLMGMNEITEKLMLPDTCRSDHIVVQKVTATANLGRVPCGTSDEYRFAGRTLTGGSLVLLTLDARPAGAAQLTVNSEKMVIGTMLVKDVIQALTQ
UniProt Q9UJX6, whole entry, looked up: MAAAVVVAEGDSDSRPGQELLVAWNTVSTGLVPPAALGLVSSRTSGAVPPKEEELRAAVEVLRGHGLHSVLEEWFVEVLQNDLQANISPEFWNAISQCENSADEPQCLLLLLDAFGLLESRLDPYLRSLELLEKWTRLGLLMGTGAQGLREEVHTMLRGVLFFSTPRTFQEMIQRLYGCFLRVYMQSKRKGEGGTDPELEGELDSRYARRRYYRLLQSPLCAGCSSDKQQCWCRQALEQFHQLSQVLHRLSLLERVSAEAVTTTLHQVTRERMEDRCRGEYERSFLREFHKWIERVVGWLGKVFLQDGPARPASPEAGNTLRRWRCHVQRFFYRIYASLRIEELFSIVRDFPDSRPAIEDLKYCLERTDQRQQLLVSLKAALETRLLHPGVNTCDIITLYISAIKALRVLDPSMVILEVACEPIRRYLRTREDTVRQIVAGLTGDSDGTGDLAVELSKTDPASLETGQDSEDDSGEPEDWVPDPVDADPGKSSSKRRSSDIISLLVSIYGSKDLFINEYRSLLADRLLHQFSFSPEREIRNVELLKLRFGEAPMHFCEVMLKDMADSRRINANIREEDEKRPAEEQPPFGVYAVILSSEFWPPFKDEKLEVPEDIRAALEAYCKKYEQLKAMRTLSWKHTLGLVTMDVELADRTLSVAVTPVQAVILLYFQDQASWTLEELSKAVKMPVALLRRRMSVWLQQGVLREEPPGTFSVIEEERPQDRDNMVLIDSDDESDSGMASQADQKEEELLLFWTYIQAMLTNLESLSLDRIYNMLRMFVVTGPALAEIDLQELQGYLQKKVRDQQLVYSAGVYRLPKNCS
UniProt O94788: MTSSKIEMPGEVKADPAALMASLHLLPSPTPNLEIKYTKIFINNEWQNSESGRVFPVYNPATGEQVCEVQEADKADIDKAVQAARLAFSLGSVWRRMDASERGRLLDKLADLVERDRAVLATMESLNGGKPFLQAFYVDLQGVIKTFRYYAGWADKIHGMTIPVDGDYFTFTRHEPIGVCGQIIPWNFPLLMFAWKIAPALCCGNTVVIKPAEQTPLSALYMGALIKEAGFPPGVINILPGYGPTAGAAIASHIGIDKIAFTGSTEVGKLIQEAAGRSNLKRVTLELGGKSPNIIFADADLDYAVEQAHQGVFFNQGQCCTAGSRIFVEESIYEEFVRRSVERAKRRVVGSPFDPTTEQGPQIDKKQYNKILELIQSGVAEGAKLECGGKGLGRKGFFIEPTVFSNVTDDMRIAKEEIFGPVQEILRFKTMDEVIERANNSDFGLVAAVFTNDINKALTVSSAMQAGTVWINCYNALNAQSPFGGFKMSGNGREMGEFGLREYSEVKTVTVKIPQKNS
UniProt Q96NW4, whole entry, looked up: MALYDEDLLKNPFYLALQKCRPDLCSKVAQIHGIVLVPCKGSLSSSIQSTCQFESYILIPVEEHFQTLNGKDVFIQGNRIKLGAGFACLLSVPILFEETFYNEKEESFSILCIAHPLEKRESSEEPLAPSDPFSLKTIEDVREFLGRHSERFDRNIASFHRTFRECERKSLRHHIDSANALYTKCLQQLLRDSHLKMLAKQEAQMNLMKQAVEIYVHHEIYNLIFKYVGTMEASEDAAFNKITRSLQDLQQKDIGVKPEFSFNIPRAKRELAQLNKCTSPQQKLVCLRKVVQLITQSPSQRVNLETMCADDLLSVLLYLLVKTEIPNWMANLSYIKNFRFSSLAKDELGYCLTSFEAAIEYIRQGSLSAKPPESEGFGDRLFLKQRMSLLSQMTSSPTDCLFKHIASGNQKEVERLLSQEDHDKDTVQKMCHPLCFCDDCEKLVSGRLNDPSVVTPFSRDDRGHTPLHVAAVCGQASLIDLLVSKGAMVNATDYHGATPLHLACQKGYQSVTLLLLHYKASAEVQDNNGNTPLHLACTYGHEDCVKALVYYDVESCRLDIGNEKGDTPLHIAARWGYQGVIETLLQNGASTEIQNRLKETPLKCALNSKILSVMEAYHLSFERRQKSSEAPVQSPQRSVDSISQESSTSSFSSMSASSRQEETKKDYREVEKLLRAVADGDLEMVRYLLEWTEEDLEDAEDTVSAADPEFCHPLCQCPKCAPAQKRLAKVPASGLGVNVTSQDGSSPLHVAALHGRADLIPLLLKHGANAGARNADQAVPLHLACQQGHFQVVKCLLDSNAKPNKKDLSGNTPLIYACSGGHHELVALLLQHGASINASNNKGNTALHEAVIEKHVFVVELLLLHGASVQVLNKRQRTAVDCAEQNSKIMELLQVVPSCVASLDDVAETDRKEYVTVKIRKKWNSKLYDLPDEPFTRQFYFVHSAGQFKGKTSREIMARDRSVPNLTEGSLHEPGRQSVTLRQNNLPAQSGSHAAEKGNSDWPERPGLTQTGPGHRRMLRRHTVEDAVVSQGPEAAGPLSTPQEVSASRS
UniProt Q9UM13, whole entry, looked up: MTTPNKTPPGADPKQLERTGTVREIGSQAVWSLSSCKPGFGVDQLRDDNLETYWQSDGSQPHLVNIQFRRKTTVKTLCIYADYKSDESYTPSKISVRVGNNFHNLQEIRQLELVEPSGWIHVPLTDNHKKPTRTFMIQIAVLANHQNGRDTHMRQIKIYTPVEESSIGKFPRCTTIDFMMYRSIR
UniProt P53680: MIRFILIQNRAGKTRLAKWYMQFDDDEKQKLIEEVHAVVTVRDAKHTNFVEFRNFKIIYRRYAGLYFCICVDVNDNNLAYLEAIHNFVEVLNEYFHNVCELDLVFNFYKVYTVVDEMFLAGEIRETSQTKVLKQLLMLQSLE

This is one part of the list.

Compound in the first assay: CCN(CCCOc1ccc2c(Nc3cc(CC(=O)Nc4cccc(F)c4)[nH]n3)ncnc2c1)CCOP(=O)(O)O [barasertib]
Put plainly: log2 fold change, soluble protein after heating vs DMSO (PISA); higher = thermal stabilisation; K562 lysate, 10 uM; active = over 0.2 and 3.5 SD of the protein, either way, in both replicates (recomputed). The gist of the method:
(§1)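 To prepare the extract, K562 pellets were dounce-homogenised in PBS pH 7.4 with 1 mM MgCl2, giving crude material at 1 mg/mL protein. This was treated with 10 μM compound for 30 min, then heated in aliquots for 3 min over 48°C-58°C before pooling and addition of NP-40 to 0.5% at 4°C. Centrifugation at 21,000xg for 90 min left soluble protein in the supernatant, which TMTpro 16plex LC-MS/MS quantified with equalised channel sums. Results are log-two fold changes in thermal stability compared with solvent controls, from duplicates.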
Regarding ANP32B (UniProt Q92688), the log2 fold change is inactive: -0.04.
As for AP1G2 (UniProt O75843), the log2 fold change is inactive: 0.011.
Still for that read-out and setting: the value for ANGEL2 (UniProt Q5VTE6) was inactive: -0.066.
Take ANKRD13A (UniProt Q8IZ07): the log2 fold change was inactive: 0.
With ALDH1L2 (UniProt Q3SY69), the log2 fold change is inactive: 0.002.
ALAD (UniProt P13716): the log2 fold change was inactive: 0.017.
Regarding AP3B2 isoform 4 (UniProt Q13367), the log2 fold change is inactive: -0.045.
Same read-out and setting: the value for ANAPC2 (UniProt Q9UJX6) was inactive: -0.007; that for ALDH1A2 (UniProt O94788) was inactive: -0.046; that for ANXA3 (UniProt P12429) was inactive: 0.01.
ANKRD27 (UniProt Q96NW4): the log2 fold change is inactive: 0.043.
For the target ANAPC10 (UniProt Q9UM13), the log2 fold change is inactive: -0.012.
The same measure, in the same setting: the value for ALG1 (UniProt Q9BT22) was inactive: -0.122.

Compound in another assay: CC[C@@H]1C(=O)N(C)c2cnc(Nc3ccc(C(=O)NC4CCN(C)CC4)cc3OC)nc2N1C1CCCC1
The assay is described as above. The essentials:
as §1
For the target ANKRD54 (UniProt Q6NXT1), the log2 fold change is inactive: 0.021.
With ALDH6A1 (UniProt Q02252), the log2 fold change was inactive: -0.009.
Take ALKBH3 (UniProt Q96Q83): the log2 fold change is inactive: 0.017.
Same read-out and setting: the value for AMD1 (UniProt P17707) was inactive: 0.036.
Same read-out and setting: next, ANPEP (UniProt P15144): inactive: 0.011.
Same read-out and setting: the value for ANXA11 (UniProt P50995) was inactive: 0.024.
Turning to ALDH1A1 (UniProt P00352), the log2 fold change was inactive: -0.016.
On to ALDH1B1 (UniProt P30837), for which the log2 fold change was inactive: 0.029.
Turning to ANK1 isoform 14 (UniProt P16157), the log2 fold change is inactive: -0.04.
Same read-out and setting: the value for AP3S1 (UniProt Q92572) was inactive: 0.073; that for ANKRD28 (UniProt O15084) was inactive: -0.022.
Turning to ALS2 (UniProt Q96Q42), the log2 fold change was inactive: -0.006.
Same read-out and setting: the value for ANTXR2 isoform 4 (UniProt P58335) was inactive: 0.004; that for ANAPC4 isoform 3 (UniProt Q9UJX5) was inactive: 0.024; that for ALMS1 (UniProt Q8TCU4) was inactive: 0.02.
Same read-out and setting: the value for AKT1S1 isoform 3 (UniProt Q96B36) was inactive: -0.005; that for ALDH18A1 (UniProt P54886) was inactive: -0.054; that for AP2S1 (UniProt P53680) was inactive: -0.073.
The same measure, in the same setting: next, AP3D1 isoform 5 (UniProt O14617): inactive: -0.004; AP1B1 (UniProt Q10567): inactive: 0.015; ALG2 (UniProt Q9H553): inactive: -0.112.
ALDH2 (UniProt P05091): the log2 fold change was inactive: -0.012.
Still for that read-out and setting: the value for ANP32B (UniProt Q92688) was inactive: 0.005.
Take AP1G2 (UniProt O75843): the log2 fold change is inactive: -0.014.
Same read-out and setting: the value for ANGEL2 (UniProt Q5VTE6) was inactive: -0.04; that for ANKRD13A (UniProt Q8IZ07) was inactive: -0.002; that for ALDH1L2 (UniProt Q3SY69) was inactive: -0.006.
Same read-out and setting: next, ALAD (UniProt P13716): inactive: 0.062; AP3B2 isoform 4 (UniProt Q13367): inactive: 0.008.
Same read-out and setting: next, ANAPC2 (UniProt Q9UJX6): inactive: 0.016.
ALDH1A2 (UniProt O94788): the log2 fold change is inactive: -0.053.
For ANXA3 (UniProt P12429), the log2 fold change was inactive: -0.006.
In the case of ANKRD27 (UniProt Q96NW4), the log2 fold change was inactive: 0.01.
Same read-out and setting: next, ANAPC10 (UniProt Q9UM13): inactive: 0.068; ALG1 (UniProt Q9BT22): inactive: 0.017.

Compound in a further assay: CC[C@@H]1C(=O)N(C)c2cnc(Nc3ccc(C(=O)N[C@H]4CC[C@H](N5CCN(CC6CC6)CC5)CC4)cc3OC)nc2N1C(C)C [volasertib]
Described as above. The gist of the method:
as §1
Turning to ANKRD54 (UniProt Q6NXT1), the log2 fold change was inactive: 0.006.
Consider ALDH6A1 (UniProt Q02252), for which the log2 fold change was inactive: -0.025.
The same measure, in the same setting: the value for ALKBH3 (UniProt Q96Q83) was inactive: -0.053; that for AMD1 (UniProt P17707) was inactive: -0.014.
The same measure, in the same setting: next, ANPEP (UniProt P15144): inactive: -0.189.
For the target ANXA11 (UniProt P50995), the log2 fold change was inactive: -0.031.
Take ALDH1A1 (UniProt P00352): the log2 fold change is inactive: -0.005.
In the case of ALDH1B1 (UniProt P30837), the log2 fold change is inactive: -0.013.
As to ANK1 isoform 14 (UniProt P16157), the log2 fold change is inactive: -0.083.
Still for that read-out and setting: the value for AP3S1 (UniProt Q92572) was inactive: -0.005; that for ANKRD28 (UniProt O15084) was inactive: -0.022; that for ALS2 (UniProt Q96Q42) was inactive: 0.065.
For ANTXR2 isoform 4 (UniProt P58335), the log2 fold change was inactive: 0.032.
Same read-out and setting: next, ANAPC4 isoform 3 (UniProt Q9UJX5): inactive: -0.029; ALMS1 (UniProt Q8TCU4): inactive: 0.072; AKT1S1 isoform 3 (UniProt Q96B36): inactive: 0.009.
On to ALDH18A1 (UniProt P54886), for which the log2 fold change is inactive: -0.033.
On the same count and under the same terms, next, AP2S1 (UniProt P53680): inactive: -0.041; AP3D1 isoform 5 (UniProt O14617): inactive: 0.
Still for that read-out and setting: next, AP1B1 (UniProt Q10567): inactive: 0.018.
The same measure, in the same setting: the value for ALG2 (UniProt Q9H553) was inactive: -0.035; that for ALDH2 (UniProt P05091) was inactive: -0.017; that for ANP32B (UniProt Q92688) was inactive: 0.037.
With AP1G2 (UniProt O75843), the log2 fold change is inactive: -0.053.
Consider ANGEL2 (UniProt Q5VTE6), for which the log2 fold change is inactive: -0.054.
As for ANKRD13A (UniProt Q8IZ07), the log2 fold change is inactive: -0.003.
The same measure, in the same setting: the value for ALDH1L2 (UniProt Q3SY69) was inactive: -0.045; that for ALAD (UniProt P13716) was inactive: 0.006.
Still for that read-out and setting: the value for AP3B2 isoform 4 (UniProt Q13367) was inactive: -0.026.
Turning to ANAPC2 (UniProt Q9UJX6), the log2 fold change was inactive: -0.047.
For the target ALDH1A2 (UniProt O94788), the log2 fold change was inactive: -0.006.
On the same count and under the same terms, next, ANXA3 (UniProt P12429): inactive: -0.017.
Same read-out and setting: next, ANKRD27 (UniProt Q96NW4): inactive: -0.075.
Consider ANAPC10 (UniProt Q9UM13), for which the log2 fold change was inactive: -0.012.
The same measure, in the same setting: the value for ALG1 (UniProt Q9BT22) was inactive: -0.022.
